Results deposited as PubChem BioAssay AID1224830 (NIAID, 2016)
Aim: 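Genes whose knock-down alters the TNF-alpha reporter response to LPS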 (primary screen). System: human THP-1 monocytic leukaemia cells, TNF dual-luciferase reporter clone, PMA-differentiated to macrophage-like cells. Knock-down reagent: siRNA pool against human genes, 50 nM. Timing: LPS for 4 h, given about 3 days after siRNA transfection. Treatment: bacterial LPS (TLR4 ligand), 10 ng/ml. Read-out: 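TNF firefly reporter luminescence divided by renilla, normalised to the plate median, then turned into a robust z-score for each replicate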. Direction: TNF reporter robust z-score: higher = stronger TNF reporter response to LPS. Active means: 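a well is active when its z-score exceeds 2.8 or falls below -1.5; control wells carry no call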.
The deposit covers about 18,000 reagents; this is a random part of them. About 2,900 of all reagents (16%) count as active. 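Calls are made per well; low scores hint the gene aids the LPS response, high scores that it dampens it.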 Repeated entries: four replicate wells of each siRNA pool. No sequences are given here.

With knock-down of WDR88 (WD repeat domain 88) the results were TNF reporter robust z-score 3.76; active.
Depletion of WDR88 (WD repeat domain 88) gave: TNF reporter robust z-score 1.9; inactive.
Against WDR88 (WD repeat domain 88), the entry reads TNF reporter robust z-score 0.66; inactive.
WDR88 (WD repeat domain 88) gave TNF reporter robust z-score -0.49; inactive.
With knock-down of GNA14 (G protein subunit alpha 14) the results were TNF reporter robust z-score -0.7; inactive.
For GNA14 (G protein subunit alpha 14), the entry reads TNF reporter robust z-score -0.29; inactive.
GNA14 (G protein subunit alpha 14) showed TNF reporter robust z-score 0.2; inactive.
With knock-down of GNA14 (G protein subunit alpha 14), the record shows TNF reporter robust z-score -0.35; inactive.
Knock-down of KANK4 (KN motif and ankyrin repeat domains 4) gave: TNF reporter robust z-score -0.7; inactive.
For KANK4 (KN motif and ankyrin repeat domains 4), the entry reads TNF reporter robust z-score -0.59; inactive.
Depletion of KANK4 (KN motif and ankyrin repeat domains 4) gave: TNF reporter robust z-score -0.48; inactive.
Knock-down of KANK4 (KN motif and ankyrin repeat domains 4) came out at: TNF reporter robust z-score -1.21; inactive.
Against HEMK2, the entry reads TNF reporter robust z-score -0.12; inactive.
For HEMK2 the deposit lists TNF reporter robust z-score 0.93; inactive.
With knock-down of HEMK2, the record shows TNF reporter robust z-score 0.49; inactive.
HEMK2 showed TNF reporter robust z-score 1.91; inactive.
Silencing of TAT (tyrosine aminotransferase) resulted in: TNF reporter robust z-score 1.04; inactive.
For TAT (tyrosine aminotransferase), the values are TNF reporter robust z-score 0.91; inactive.
TAT (tyrosine aminotransferase) showed TNF reporter robust z-score 0.15; inactive.
Knock-down of TAT (tyrosine aminotransferase) gave: TNF reporter robust z-score -0.68; inactive.
XRCC6 (X-ray repair cross complementing 6) showed TNF reporter robust z-score -1.77; active.
For XRCC6 (X-ray repair cross complementing 6), the values are TNF reporter robust z-score -1.61; active.
XRCC6 (X-ray repair cross complementing 6) showed TNF reporter robust z-score -0.71; inactive.
Against XRCC6 (X-ray repair cross complementing 6) the deposit lists TNF reporter robust z-score -0.77; inactive.
For BAGE4 (BAGE family member 4), the entry reads TNF reporter robust z-score 1.66; inactive.
BAGE4 (BAGE family member 4) scored TNF reporter robust z-score 1.44; inactive.
Depletion of BAGE4 (BAGE family member 4) came out at: TNF reporter robust z-score 1.29; inactive.
For BAGE4 (BAGE family member 4) the deposit lists TNF reporter robust z-score 1.7; inactive.
Against HARS1 (histidyl-tRNA synthetase 1), the entry reads TNF reporter robust z-score 0.41; inactive.
For HARS1 (histidyl-tRNA synthetase 1), the entry reads TNF reporter robust z-score 0.2; inactive.
For HARS1 (histidyl-tRNA synthetase 1) the deposit lists TNF reporter robust z-score -0.52; inactive.
HARS1 (histidyl-tRNA synthetase 1) scored TNF reporter robust z-score -0.18; inactive.
